From the supplement of paper PMC3334620
The full ranking holds about 33,000 sequences; the median of “E-score (-0.5 to 0.5)” is about -0.0059, and the highest 2% start at about 0.26. The list shows a part of the results.

Target: T1, Cin5 (UniProt P40917)
T1 sequence: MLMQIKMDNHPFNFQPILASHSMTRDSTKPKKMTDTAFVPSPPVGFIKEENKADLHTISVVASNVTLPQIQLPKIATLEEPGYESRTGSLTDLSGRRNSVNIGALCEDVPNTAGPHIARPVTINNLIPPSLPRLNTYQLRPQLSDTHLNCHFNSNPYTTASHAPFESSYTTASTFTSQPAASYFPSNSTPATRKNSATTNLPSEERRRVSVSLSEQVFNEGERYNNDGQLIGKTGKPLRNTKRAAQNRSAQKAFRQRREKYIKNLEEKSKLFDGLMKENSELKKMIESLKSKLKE
Experiment: PBM E-score (8-mer binding enrichment) (E-score (-0.5 to 0.5)); higher = stronger / more preferred TF binding
Conditions: protein concentration: 100 nM; construct: GST-full length
Outline: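 Yeast transcription factors, full-length or as DNA-binding domains, were expressed with a GST tag using PURExpress in vitro transcription/translation. At about 100-200 nM they were applied to universal all-10-mer Agilent arrays, double-stranded by primer extension on fresh or once-stripped slides. Fluorescent anti-GST detected bound protein, and masliner normalised the scans. E-scores for ungapped eight-base words, pooled with reverse complements, came from the Universal PBM Analysis Suite.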

Sequence | PBM E-score
ACACAAAG | 0.127
TCGAGCGA | 0.105
CAAGTATG | 0.128
CCGCACAC | -0.18
CAAATCAA | 0.231
CCTTTTTC | 0.0612
GTAGTTTA | 0.131
GAATAGCA | 0.0428
AGACAGTG | -0.0987
AGCACAGA | 0.133
GAAATCTA | 0.165
AGACTTTA | -0.168
AGGGAATG | -0.0715
ATGTCTGG | 0.0414
CCTGTCGC | -0.167
AGAATTCT | 0.104
CAAGGACG | -0.228
ACCTAACA | 0.099
GCTGCACA | -0.145
ACTTGAGG | -0.114
AAAAAAAC | 0.0551
ACCCCGTA | 0.172
GAAACGAC | 0.034
CCCCTGCG | -0.173

Look-ups from above.
AGGGAATG | PBM E-score: -0.0715
ACACAAAG | PBM E-score: 0.127
GCTGCACA | PBM E-score: -0.145
CAAGTATG | PBM E-score: 0.128
CCGCACAC | PBM E-score: -0.18
ACCCCGTA | PBM E-score: 0.172

Going on with the list.

Sequence | PBM E-score
GACTGTGC | -0.276
CCGACCCA | -0.199
CGCCGGCA | -0.0945
ACGGGCCA | -0.034
CAAAGGCC | -0.227
GTGACAGA | -0.0519
ACTGAACG | -0.168
AACAGTAC | 0.107
CTTGAGGC | -0.21
ATTGTACA | 0.0322
TTATGCAA | 0.186
AAGTACGC | -0.00407
ACGCTGGC | -0.146
ACGAGGAT | -0.124
AGTTCCGC | 0.162
AGCGTCCT | -0.249
CTCCTTAC | -0.123
GTTTTTCA | 0.00319
ACATTAAC | 0.146
GCGGGCCC | -0.198
ATTCCCAA | 0.166
CCCTCTTC | -0.33
ACTGCTCA | 0.0833
AGATTCCG | 0.226

Sequence | PBM E-score
GGTCCTTA | 0.0773
ATGGGATA | 0.0461
GAAAACCA | -0.0853
ATCGCATA | 0.128
TGACTCAA | -0.0918
ATCCAAAT | 0.123
ATTCAAGA | -0.0507
GACGAACA | -0.0658
CAAAAGGA | -0.0523
CGCACATA | -0.122
AGAGAGCT | -0.265
CCAGGCCG | -0.255
AGTTGGGG | 0.125
GTCCTCAC | -0.088
ATAGGCCC | -0.229
AAGCAATA | 0.192
AACGGCTA | -0.0303
CTCGTCTA | -0.132
AAGTACAC | 0.0965
GGCAGAAA | 0.246
CGCTAGTC | -0.344
ATGGAGTA | 0.17
AGGAGAAC | -0.165
CGTTGTAC | -0.0451

Sequence | PBM E-score
ATCCAGCA | -0.0465
CCGCATAC | 0.072
GGTCAGCA | 0.179
GCGTATAC | -0.017
ATGTGCTC | 0.136
ATCCCATG | 0.0696
CAACGTCG | 0.0109
GACGCGGA | -0.186
ATACACTC | 0.0232
CTCAAGGC | -0.135
GTGAGGGA | -0.147
TAAGCACA | 0.314
GTCCTCAA | -0.026
AATTCTGA | 0.0664
CGGGTCCC | -0.337
GGTTTGGA | 0.075
CATATTAA | 0.275
ACAGCCGG | 0.154
ACCAAGCA | 0.0042
ACCGCCTA | -0.033
ACAGCACC | -0.189
AGTTATGC | 0.199
